Source: article PMC3284568
Results are given in words; binding and its absence hold for the method and conditions named. In cells and extracts the contact can be indirect. Some binding calls cover weakened binding; strength is not graded here.

Protein sequences, listed by entry. Tags and fused reporters are not part of them. Residues count along the entry.
UniProt Q9NPQ8: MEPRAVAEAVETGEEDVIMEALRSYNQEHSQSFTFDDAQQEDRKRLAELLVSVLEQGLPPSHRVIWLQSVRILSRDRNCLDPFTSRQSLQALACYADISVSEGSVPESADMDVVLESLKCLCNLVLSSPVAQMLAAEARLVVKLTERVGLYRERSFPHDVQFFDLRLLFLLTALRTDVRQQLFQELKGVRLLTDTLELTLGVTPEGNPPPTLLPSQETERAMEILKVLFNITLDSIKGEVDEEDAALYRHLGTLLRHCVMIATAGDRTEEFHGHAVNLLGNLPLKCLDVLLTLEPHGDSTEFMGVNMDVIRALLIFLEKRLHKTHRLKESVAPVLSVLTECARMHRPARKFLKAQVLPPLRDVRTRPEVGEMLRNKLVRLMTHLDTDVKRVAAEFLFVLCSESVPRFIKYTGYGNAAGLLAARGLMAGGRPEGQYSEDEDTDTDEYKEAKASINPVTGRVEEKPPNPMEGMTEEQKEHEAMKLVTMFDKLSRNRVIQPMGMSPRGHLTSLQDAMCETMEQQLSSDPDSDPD
UniProt P13595, residues 20-1115: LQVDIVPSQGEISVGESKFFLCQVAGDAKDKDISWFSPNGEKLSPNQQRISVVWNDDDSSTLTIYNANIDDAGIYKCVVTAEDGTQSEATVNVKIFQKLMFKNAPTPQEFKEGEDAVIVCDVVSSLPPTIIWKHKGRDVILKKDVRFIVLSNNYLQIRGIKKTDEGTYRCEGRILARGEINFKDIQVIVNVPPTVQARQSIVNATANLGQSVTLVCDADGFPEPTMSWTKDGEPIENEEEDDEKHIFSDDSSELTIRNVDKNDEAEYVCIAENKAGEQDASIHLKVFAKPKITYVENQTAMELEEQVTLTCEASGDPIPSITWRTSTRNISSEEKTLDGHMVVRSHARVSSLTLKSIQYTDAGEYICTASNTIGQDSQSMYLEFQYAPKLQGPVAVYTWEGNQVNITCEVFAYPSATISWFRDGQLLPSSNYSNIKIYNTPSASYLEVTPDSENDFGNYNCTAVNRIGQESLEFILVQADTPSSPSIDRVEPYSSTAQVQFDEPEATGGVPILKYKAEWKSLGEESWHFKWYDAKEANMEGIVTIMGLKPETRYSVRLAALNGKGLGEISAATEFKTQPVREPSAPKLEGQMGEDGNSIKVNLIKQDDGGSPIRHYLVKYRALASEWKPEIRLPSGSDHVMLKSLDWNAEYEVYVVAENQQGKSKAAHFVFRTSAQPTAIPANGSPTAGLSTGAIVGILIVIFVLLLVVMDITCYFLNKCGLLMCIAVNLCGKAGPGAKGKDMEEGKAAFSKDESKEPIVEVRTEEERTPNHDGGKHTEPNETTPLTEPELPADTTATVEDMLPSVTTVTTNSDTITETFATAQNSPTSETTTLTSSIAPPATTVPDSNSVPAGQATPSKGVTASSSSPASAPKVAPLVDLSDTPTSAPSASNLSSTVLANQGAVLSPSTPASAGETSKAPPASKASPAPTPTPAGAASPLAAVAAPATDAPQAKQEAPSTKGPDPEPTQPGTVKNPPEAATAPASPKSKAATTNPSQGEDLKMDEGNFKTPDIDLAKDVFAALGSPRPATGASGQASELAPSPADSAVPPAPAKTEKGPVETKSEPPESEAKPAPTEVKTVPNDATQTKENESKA

Target: Ric8A-GST (human recombinant, full length) (human) (UniProt Q9NPQ8)
Assay: pull-down; cleared female mouse brain extract incubated with recombinant Ric8A-GST (3 h, RT) or purified GST, then GSH beads (1 h, 4°C); NCAM detected by Western blot; only the target purified

- binding: binds
Substance: NCAM180 (endogenous, mouse brain extract) (from UniProt P13595-1 20-1115)
